Experimental data: paper doi:10.1101/2024.11.18.624083

Sequences of proteins named here, by UniProt entry; tags and fusion partners are left off.
UniProt Q6P5D8: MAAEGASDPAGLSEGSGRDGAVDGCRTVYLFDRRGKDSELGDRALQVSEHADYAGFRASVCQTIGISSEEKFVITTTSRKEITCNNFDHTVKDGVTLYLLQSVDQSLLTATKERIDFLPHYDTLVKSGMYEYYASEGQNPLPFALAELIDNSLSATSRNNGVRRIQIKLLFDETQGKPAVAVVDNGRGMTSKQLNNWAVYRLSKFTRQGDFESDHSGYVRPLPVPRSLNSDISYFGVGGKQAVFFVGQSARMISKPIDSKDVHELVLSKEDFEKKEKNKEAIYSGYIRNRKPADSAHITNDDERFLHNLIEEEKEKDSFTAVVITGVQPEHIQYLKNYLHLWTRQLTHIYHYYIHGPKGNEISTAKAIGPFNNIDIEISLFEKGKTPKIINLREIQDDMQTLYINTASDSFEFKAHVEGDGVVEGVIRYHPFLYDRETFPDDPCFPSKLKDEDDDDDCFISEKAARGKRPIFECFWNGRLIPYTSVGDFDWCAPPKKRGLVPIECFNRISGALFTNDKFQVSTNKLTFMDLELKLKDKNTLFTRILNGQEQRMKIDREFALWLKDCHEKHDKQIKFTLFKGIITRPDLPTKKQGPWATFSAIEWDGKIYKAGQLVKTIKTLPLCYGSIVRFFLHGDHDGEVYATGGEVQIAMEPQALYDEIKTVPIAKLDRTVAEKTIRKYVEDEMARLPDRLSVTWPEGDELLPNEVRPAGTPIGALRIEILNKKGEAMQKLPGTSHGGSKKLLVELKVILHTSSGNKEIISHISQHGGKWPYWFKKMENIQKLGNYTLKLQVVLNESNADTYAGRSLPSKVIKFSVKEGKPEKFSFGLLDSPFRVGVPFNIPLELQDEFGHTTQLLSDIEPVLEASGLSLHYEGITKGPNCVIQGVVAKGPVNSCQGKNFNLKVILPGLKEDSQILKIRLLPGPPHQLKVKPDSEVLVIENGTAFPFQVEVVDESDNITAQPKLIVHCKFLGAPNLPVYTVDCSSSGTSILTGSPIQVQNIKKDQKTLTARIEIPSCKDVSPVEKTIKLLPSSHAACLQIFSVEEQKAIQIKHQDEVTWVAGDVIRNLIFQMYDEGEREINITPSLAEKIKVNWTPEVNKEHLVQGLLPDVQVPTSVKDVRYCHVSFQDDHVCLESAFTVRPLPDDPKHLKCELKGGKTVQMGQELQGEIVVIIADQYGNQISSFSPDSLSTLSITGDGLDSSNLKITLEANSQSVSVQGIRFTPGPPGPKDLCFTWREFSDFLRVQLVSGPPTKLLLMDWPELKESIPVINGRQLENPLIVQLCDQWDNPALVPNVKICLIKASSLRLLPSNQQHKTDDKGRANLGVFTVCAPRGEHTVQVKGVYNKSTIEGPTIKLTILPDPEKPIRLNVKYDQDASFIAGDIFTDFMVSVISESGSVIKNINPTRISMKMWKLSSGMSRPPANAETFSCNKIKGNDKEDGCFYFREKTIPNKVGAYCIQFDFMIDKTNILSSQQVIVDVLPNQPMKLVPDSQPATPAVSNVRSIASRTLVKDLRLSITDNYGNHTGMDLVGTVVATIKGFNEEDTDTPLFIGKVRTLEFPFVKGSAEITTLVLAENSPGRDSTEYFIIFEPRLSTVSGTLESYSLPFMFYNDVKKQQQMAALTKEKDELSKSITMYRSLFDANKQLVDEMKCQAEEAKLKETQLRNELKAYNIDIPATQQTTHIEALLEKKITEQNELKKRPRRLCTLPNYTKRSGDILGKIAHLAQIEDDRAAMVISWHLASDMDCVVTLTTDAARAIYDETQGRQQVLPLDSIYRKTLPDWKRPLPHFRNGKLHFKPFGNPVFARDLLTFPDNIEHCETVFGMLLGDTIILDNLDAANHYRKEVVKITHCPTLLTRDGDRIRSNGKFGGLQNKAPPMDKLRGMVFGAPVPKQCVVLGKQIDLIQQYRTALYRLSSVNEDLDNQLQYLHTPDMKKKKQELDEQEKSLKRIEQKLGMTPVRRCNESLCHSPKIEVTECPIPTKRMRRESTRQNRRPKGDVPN

Target: T1, GFP-tagged Lrif1 long isoform (expressed in E14 mESCs) (mouse) (UniProt Q8CDD9)
T1 sequence: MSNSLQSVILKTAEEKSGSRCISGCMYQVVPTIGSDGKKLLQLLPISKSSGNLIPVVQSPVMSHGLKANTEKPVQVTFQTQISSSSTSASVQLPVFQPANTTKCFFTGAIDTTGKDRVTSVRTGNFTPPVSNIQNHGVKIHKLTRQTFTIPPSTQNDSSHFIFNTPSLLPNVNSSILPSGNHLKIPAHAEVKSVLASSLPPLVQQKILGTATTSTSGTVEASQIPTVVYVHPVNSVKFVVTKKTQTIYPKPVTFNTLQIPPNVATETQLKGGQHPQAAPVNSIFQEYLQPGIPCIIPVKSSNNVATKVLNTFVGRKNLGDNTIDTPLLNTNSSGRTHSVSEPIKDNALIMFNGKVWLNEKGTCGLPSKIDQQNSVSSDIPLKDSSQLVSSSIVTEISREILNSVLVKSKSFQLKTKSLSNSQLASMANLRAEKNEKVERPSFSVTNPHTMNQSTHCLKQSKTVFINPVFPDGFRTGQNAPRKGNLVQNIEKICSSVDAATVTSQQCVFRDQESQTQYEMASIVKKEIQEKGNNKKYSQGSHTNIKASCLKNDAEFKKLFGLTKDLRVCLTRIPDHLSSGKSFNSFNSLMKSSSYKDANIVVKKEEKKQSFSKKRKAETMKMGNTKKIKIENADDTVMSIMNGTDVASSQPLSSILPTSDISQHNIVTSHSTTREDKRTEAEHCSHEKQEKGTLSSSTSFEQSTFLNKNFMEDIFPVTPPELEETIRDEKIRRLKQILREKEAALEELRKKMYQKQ
Test: affinity purification with mass spectrometry

binding: binds
Substance: Smchd1, endogenous in mESCs (from UniProt Q6P5D8 1-2007)

Results are given in words; binding and its absence hold for the method and conditions named. Binding seen in cells or lysates may run through a third protein. These calls come from enrichment with a bait or labelling near it, and not all partners need be listed. Tags and fused reporters may be left off the sequences shown.
